The source of these data is publication PMC10264389.

Protein sequences, listed by entry. Tags and fused reporters are not part of them. Lines headed by an entry give the natural chain unless they say otherwise; changes in a name come on top.
UniProt Q9H1E5: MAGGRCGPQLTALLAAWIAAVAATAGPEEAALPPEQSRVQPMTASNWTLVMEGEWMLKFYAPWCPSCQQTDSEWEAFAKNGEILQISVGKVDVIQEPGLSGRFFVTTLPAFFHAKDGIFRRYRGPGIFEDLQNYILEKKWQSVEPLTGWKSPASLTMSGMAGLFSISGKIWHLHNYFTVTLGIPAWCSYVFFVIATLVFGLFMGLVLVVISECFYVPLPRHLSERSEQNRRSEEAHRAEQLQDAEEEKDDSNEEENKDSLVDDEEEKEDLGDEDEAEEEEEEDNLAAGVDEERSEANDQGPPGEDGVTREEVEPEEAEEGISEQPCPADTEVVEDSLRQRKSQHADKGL
UniProt Q96JJ7: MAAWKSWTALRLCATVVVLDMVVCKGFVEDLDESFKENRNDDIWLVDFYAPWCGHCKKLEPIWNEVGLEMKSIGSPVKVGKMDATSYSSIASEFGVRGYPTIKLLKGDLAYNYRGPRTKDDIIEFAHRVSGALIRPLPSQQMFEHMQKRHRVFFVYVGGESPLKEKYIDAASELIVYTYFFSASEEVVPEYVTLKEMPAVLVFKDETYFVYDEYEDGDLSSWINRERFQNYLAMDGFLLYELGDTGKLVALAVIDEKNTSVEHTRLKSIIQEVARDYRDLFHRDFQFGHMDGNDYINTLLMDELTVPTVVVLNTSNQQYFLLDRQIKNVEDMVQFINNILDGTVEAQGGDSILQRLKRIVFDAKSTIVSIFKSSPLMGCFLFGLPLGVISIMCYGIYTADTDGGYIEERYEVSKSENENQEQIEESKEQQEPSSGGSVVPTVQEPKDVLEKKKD
UniProt O94901: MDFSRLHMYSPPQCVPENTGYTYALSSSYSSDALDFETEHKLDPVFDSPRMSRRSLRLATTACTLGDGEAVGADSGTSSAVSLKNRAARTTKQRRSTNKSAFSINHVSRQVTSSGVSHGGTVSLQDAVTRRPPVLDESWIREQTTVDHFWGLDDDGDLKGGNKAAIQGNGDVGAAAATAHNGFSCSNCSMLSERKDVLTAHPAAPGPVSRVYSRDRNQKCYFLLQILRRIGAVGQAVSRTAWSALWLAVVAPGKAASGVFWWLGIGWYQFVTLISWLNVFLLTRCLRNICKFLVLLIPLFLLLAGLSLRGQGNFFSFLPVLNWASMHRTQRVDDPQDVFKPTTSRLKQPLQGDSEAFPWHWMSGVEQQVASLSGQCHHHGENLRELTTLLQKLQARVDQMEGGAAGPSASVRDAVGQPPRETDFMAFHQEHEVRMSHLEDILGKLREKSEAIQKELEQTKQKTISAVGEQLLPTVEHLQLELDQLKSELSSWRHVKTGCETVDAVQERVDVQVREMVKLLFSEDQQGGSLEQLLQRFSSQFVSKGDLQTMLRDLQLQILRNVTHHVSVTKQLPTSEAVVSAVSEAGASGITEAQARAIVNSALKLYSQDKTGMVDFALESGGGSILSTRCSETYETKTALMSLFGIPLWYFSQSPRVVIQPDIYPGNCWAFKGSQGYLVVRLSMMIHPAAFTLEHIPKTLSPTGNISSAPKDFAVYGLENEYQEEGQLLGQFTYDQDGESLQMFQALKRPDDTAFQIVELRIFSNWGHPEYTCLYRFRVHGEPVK

No constants are given. Whether binding was seen depends on the method and setting. Binding seen in cells or lysates may run through a third protein. Here binding means that the protein was enriched with, or labelled near, the bait; the list need not be complete. A no says only that the protein was not detected with the bait. For some of these results: Tags and fused reporters may be left off the sequences shown.

Holding throughout (assay): affinity purification with mass spectrometry; V5-tagged trapping TMX proteins expressed in HEK293; lysis in RIPA buffer with 20 mM NEM; post-nuclear supernatant double immunoprecipitated with anti-V5 beads; non-reduced and reduced samples run on gels, lanes of the trapping variants cut from the loading point to the 50 kDa marker; LC-MS/MS of proteins trapped in mixed disulfides

One assay concerns the target TMX4_(C67A)-V5 (UniProt Q9H1E5).
In the next assay the target is TMX3_(C56A)-V5 (UniProt Q96JJ7).
For the next assay, the target named is T1, TMX5-V5 (UniProt Q96J42).
T1 sequence: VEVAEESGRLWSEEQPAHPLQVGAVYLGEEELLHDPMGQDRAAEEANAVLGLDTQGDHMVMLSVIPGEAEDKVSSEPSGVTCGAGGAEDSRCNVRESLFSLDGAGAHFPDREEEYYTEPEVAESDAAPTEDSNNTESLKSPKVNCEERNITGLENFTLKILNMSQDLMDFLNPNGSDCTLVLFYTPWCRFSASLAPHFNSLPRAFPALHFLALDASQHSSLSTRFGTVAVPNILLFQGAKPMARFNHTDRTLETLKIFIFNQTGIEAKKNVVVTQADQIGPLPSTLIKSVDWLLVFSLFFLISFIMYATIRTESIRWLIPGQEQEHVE

Consider “SUN1 (endogenous) (from UniProt O94901 1-785)”, for which, in the assay with TMX4_(C67A)-V5, the binding result is “no binding”.
In the case of “NESPRIN2 (SYNE2) (from UniProt Q8WXH0 1-6885)”, the values for the binding entry with TMX3_(C56A)-V5, with TMX4_(C67A)-V5 and in the assay with TMX5-V5 were “no binding”, “binds” and “no binding”, respectively.
As for NESPRIN1 (from UniProt Q8NF91 1-8797), the binding result with TMX3_(C56A)-V5 is listed as “no binding”; in the assay with TMX4_(C67A)-V5, “binds”; with TMX5-V5, “no binding”.
